Reference: the supplement of paper PMC6411743
± gives the standard deviation of the averaged measurements. The list shows a part of the results.

By UniProt entry, the sequences of proteins in these tests, tags left out. Where a name states a change or a piece, a line headed by the entry shows the natural chain unless it says otherwise.
UniProt Q9NXG2: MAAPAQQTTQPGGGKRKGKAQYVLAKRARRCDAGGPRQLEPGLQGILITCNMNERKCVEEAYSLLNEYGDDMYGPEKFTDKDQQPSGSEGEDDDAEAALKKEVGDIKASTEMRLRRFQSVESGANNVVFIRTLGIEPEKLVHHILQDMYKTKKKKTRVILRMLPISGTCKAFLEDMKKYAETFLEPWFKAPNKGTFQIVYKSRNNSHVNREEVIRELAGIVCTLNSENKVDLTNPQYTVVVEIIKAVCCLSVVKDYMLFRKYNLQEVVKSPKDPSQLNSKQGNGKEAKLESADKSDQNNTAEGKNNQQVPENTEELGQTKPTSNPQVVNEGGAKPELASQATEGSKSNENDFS
UniProt Q9UH62: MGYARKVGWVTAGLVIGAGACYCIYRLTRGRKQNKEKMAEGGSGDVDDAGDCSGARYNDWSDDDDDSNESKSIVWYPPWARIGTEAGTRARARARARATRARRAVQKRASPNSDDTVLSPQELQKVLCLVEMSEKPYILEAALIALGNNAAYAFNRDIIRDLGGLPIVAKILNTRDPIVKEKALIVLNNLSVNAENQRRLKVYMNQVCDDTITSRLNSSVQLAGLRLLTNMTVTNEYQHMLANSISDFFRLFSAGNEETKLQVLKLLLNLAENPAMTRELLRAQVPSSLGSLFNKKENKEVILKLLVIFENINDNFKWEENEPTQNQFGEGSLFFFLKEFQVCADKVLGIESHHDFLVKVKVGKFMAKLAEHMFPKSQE
UniProt Q9NZN5: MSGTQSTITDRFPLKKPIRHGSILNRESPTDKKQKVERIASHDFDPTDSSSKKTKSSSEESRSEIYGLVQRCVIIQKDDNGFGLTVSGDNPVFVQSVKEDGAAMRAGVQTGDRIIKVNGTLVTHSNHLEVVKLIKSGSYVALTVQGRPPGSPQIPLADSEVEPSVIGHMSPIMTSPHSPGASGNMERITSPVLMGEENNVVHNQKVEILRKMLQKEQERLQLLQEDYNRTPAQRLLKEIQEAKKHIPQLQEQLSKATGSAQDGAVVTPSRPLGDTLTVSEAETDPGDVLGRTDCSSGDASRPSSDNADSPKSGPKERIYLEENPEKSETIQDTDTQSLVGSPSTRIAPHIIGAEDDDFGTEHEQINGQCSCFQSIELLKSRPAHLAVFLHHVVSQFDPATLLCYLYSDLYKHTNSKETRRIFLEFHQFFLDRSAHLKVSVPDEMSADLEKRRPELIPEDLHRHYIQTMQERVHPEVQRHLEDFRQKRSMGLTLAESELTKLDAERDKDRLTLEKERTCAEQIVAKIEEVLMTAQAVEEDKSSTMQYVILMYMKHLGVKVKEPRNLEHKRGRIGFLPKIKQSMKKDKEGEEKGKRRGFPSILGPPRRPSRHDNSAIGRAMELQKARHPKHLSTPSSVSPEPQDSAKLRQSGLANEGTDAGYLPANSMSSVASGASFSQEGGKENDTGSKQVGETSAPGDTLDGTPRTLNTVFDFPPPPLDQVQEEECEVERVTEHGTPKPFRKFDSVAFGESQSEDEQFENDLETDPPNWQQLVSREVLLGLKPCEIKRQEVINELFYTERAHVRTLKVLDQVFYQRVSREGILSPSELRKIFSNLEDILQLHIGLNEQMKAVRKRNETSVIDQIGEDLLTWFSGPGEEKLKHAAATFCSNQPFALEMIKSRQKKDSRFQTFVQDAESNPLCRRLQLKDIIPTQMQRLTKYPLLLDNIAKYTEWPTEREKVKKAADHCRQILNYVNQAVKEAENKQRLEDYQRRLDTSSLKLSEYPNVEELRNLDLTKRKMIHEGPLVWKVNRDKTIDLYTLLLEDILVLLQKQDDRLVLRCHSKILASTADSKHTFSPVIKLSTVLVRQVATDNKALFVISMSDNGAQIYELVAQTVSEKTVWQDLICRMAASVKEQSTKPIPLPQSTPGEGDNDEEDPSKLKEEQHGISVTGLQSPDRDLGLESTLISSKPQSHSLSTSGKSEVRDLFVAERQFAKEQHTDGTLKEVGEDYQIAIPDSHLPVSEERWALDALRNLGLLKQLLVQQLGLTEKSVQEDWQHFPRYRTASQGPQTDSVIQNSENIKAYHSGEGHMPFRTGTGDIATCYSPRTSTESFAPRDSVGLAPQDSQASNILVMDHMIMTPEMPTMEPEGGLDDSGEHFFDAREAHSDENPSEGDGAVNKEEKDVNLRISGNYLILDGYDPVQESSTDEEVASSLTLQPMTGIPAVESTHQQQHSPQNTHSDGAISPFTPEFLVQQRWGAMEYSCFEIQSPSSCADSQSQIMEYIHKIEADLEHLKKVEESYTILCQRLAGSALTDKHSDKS
UniProt Q9NXV6: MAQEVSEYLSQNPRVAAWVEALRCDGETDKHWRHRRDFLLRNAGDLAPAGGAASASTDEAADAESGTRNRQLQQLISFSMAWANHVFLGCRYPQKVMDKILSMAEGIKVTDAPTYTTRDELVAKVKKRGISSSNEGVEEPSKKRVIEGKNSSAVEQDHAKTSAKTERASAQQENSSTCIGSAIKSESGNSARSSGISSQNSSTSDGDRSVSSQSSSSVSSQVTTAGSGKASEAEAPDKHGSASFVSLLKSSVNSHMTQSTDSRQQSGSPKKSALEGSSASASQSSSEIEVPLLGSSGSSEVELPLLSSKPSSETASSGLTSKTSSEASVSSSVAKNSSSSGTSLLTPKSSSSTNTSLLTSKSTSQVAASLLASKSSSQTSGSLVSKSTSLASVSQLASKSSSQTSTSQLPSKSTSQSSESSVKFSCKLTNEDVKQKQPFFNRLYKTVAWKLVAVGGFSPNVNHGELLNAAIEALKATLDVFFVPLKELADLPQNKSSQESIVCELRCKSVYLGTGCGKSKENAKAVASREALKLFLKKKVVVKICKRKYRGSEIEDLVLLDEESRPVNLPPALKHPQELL
UniProt Q9NW75: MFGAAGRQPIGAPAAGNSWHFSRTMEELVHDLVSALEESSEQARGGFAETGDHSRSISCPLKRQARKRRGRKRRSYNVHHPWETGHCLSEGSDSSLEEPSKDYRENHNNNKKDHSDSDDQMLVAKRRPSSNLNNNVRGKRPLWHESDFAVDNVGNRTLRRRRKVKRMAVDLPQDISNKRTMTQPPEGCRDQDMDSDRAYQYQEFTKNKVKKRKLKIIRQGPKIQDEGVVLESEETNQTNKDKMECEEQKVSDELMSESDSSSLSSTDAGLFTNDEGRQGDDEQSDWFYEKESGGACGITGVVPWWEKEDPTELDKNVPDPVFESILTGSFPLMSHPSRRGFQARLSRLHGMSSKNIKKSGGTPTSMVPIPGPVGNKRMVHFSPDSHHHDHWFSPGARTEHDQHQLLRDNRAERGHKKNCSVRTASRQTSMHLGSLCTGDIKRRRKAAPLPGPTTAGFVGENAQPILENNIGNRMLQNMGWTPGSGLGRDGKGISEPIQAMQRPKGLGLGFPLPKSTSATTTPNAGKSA
UniProt Q9NUQ3: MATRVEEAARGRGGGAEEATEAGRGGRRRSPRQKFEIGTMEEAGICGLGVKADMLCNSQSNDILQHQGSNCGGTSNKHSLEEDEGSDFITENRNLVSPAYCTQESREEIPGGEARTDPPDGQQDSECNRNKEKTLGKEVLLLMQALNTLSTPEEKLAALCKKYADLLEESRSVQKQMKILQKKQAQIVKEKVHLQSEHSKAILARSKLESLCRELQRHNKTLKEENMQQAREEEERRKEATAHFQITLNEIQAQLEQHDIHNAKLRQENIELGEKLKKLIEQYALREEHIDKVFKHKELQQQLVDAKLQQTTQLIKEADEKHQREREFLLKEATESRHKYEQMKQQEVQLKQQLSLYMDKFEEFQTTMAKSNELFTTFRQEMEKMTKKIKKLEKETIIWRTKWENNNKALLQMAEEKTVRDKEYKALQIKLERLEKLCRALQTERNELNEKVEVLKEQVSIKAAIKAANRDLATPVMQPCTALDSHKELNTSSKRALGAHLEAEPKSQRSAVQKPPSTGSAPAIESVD
UniProt Q9UII2: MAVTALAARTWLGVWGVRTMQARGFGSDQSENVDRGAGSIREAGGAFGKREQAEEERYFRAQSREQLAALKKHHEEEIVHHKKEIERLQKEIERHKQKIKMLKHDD
UniProt Q9UKK3: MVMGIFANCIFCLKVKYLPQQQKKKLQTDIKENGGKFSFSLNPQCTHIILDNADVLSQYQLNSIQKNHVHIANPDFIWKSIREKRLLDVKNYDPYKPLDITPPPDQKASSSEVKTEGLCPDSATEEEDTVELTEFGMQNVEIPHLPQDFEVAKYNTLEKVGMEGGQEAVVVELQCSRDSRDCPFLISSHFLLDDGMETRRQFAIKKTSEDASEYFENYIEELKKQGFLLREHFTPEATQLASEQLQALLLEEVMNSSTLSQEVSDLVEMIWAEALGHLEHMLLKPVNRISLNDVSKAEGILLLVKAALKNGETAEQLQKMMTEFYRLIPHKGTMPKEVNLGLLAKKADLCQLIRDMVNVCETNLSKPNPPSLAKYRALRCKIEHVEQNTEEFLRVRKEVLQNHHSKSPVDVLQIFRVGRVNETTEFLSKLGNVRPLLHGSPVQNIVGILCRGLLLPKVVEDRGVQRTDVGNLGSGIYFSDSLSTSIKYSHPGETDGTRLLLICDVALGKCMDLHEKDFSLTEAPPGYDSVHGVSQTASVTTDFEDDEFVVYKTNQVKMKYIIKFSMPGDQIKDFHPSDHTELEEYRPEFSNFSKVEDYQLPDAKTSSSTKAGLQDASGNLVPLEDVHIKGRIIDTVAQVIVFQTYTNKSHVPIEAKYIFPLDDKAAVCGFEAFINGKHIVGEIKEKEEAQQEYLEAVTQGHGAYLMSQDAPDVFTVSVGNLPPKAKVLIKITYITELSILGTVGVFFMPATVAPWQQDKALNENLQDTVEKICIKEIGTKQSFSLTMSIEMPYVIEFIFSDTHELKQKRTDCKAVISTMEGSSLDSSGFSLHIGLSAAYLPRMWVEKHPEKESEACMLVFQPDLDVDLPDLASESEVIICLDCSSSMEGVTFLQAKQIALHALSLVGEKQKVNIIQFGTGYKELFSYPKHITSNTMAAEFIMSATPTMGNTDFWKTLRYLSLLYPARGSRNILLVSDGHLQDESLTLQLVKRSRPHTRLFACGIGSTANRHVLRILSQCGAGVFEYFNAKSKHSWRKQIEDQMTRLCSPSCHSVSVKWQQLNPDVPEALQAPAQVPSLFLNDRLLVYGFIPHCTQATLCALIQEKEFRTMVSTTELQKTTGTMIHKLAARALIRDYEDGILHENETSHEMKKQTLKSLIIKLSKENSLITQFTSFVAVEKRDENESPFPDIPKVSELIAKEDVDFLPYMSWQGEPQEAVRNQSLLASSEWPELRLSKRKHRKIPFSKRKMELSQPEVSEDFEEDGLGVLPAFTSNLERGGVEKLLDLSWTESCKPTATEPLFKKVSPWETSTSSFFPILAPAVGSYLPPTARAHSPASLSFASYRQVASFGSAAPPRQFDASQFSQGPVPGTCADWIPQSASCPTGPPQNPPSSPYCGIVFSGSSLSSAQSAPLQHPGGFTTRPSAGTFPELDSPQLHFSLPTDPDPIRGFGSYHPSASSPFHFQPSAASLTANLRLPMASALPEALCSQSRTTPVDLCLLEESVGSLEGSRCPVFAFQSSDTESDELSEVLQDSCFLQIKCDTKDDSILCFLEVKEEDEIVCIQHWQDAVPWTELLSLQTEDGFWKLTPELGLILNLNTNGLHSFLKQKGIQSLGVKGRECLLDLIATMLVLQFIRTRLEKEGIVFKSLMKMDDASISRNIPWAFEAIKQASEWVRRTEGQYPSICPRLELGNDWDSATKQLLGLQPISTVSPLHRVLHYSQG
UniProt Q9UKY7: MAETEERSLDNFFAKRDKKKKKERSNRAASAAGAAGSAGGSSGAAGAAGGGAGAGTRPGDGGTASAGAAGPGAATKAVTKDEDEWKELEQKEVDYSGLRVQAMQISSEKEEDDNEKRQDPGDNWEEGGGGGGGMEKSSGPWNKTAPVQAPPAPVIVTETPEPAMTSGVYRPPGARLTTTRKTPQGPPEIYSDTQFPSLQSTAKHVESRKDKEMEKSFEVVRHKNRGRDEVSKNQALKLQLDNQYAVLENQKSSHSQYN
UniProt Q9NWS6: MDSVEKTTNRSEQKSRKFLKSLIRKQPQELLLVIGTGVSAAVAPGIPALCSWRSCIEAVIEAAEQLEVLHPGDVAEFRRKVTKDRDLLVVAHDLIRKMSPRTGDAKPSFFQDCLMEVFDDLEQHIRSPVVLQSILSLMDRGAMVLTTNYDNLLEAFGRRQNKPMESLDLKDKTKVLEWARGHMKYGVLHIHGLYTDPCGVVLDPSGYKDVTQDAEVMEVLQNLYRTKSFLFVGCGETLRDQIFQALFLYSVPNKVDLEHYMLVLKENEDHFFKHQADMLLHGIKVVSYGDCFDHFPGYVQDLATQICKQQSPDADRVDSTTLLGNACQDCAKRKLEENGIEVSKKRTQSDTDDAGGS
UniProt Q9NWV4: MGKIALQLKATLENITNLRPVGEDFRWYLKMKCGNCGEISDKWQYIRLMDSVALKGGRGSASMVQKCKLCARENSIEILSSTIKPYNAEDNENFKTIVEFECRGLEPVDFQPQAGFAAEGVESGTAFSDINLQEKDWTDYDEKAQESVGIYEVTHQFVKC

Compound: Nc1nc2c(ncn2[C@@H]2O[C@H](COP(=O)(O)OP(=O)(O)OP(=O)(O)O)[C@@H](O)[C@H]2O)c(=O)[nH]1 [guanosine triphosphate]
Assay: NP40-soluble protein abundance relative to vehicle (solubility fold change) (ratio); higher = more soluble protein in presence of GTP
Outline: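 Eight concentrations, 0.1 to 10 mM, were tested on Jurkat crude lysate for 10 min at room temperature and then 3 min at 37 °C, in three independent experiments. The lysate was solubilised with 0.8% NP40 and benzonase, ultracentrifuged, and the supernatant TMT-labelled for LC-MS/MS. Each value is the fold change against the detergent-processed vehicle in its own replicate, from vsn-normalised intensities.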

Target	NP40-soluble protein abundance (concentration: 0.1mM)	NP40-soluble protein abundance (concentration: 0.5mM)	NP40-soluble protein abundance (concentration: 1mM)	NP40-soluble protein abundance (concentration: 2mM)	NP40-soluble protein abundance (concentration: 4mM)	NP40-soluble protein abundance (concentration: 6mM)	NP40-soluble protein abundance (concentration: 8mM)	NP40-soluble protein abundance (concentration: 10mM)
THUMPD1 (UniProt Q9NXG2)	0.874 ± 0.035	0.82 ± 0.067	0.992 ± 0.013	0.98 ± 0.044	0.965 ± 0.045	0.986 ± 0.046	0.922 ± 0.14	0.993 ± 0.039
UniProt Q9UKV3-3|S4R3H4	0.964 ± 0.039	1.01 ± 0.049	1.14 ± 0.065	1.09 ± 0.03	1.03 ± 0.14	1.03 ± 0.13	1.06 ± 0.19	1.12 ± 0.22
COPS7A (UniProt Q9UBW8)	0.953 ± 0.1	0.912 ± 0.09	1.05 ± 0.15	1.09 ± 0.12	1.09 ± 0.18	1.05 ± 0.12	0.985 ± 0.12	1.08 ± 0.18
ARMCX3 (UniProt Q9UH62)	0.99 ± 0.12	1.02 ± 0.12	0.987 ± 0.12	1.01 ± 0.13	1 ± 0.071	1.05 ± 0.068	0.914 ± 0.12	1.02 ± 0.11
UniProt Q9UG63 and related entries	1.1 ± 0.076	1.11 ± 0.014	1.07 ± 0.072	1.35 ± 0.072	1.83 ± 0.061	2.15 ± 0.12	2.39 ± 0.11	2.744 ± 0.018
UniProt Q9UDT6 and related entries	1.09 ± 0.23	1.05 ± 0.08	1.15 ± 0.23	1.12 ± 0.13	1.1 ± 0.18	1.16 ± 0.089	1.14 ± 0.2	1.13 ± 0.17
UniProt Q9NZN5 and related entries	1.08 ± 0.024	1.07 ± 0.11	1.03 ± 0.034	1.01 ± 0.082	1.01 ± 0.069	1.07 ± 0.1	0.998 ± 0.057	1.05 ± 0.061
CDKN2AIP (UniProt Q9NXV6)	0.979 ± 0.033	0.99 ± 0.058	1.01 ± 0.019	0.989 ± 0.035	1.01 ± 0.023	1 ± 0.031	1.04 ± 0.029	1.04 ± 0.03
UniProt Q9P2K3 and related entries	1.01 ± 0.019	1.018 ± 0.01	1.08 ± 0.09	1.09 ± 0.077	1.1 ± 0.1	1.14 ± 0.1	1.19 ± 0.16	1.2 ± 0.18
UniProt Q9UKZ1	1.52 ± 0.81	1.19 ± 0.11	1.4 ± 0.41	2.81 ± 2.7	1.26 ± 0.14	1.24 ± 0.11	1.29 ± 0.15	1.36 ± 0.051
FBXO28 (UniProt Q9NVF7)	1.09 ± 0.028	1.08 ± 0.13	1.28 ± 0.18	1.31 ± 0.099	1.39 ± 0.12	1.47 ± 0.12	1.42 ± 0.28	1.61 ± 0.25
UniProt Q9NW75 and related entries	0.879 ± 0.058	0.9052 ± 0.0019	0.896 ± 0.019	0.874 ± 0.0054	0.83 ± 0.029	0.8403 ± 0.0062	0.807 ± 0.031	0.8354 ± 0.0071
UniProt Q9NUQ3	0.972 ± 0.044	0.956 ± 0.08	0.973 ± 0.069	0.937 ± 0.073	0.928 ± 0.075	0.949 ± 0.095	0.97 ± 0.084	0.977 ± 0.064
RBM27 (UniProt Q9P2N5)	1.09 ± 0.031	1.24 ± 0.077	1.4 ± 0.1	1.45 ± 0.1	1.54 ± 0.13	1.5 ± 0.089	1.62 ± 0.19	1.6 ± 0.18
UniProt Q9UII2	0.946 ± 0.08	0.972 ± 0.11	1.01 ± 0.078	0.936 ± 0.1	0.875 ± 0.1	0.908 ± 0.14	0.93 ± 0.07	0.963 ± 0.07
OCIAD1 (UniProt Q9NX40)	0.922 ± 0.025	0.9 ± 0.044	1.01 ± 0.016	0.982 ± 0.058	0.971 ± 0.072	0.956 ± 0.053	0.956 ± 0.034	0.974 ± 0.037
UniProt Q9NZ01	0.992 ± 0.044	1.04 ± 0.093	0.912 ± 0.072	0.958 ± 0.12	0.958 ± 0.094	0.977 ± 0.12	0.924 ± 0.075	0.89 ± 0.031
TBK1 (UniProt Q9UHD2)	1.06 ± 0.065	1.03 ± 0.061	1.01 ± 0.1	0.984 ± 0.058	0.988 ± 0.053	0.959 ± 0.07	0.965 ± 0.041	0.898 ± 0.023
UniProt Q9ULC4 and related entries	0.995 ± 0.034	0.986 ± 0.018	0.904 ± 0.04	0.901 ± 0.05	0.891 ± 0.064	0.865 ± 0.032	0.858 ± 0.076	0.854 ± 0.063
MTPAP (UniProt Q9NVV4)	1.04 ± 0.043	0.972 ± 0.1	1.07 ± 0.095	1.18 ± 0.077	1.33 ± 0.062	1.42 ± 0.055	1.55 ± 0.02	1.554 ± 0.012
UniProt Q9NVR5	0.928 ± 0.076	0.944 ± 0.078	0.923 ± 0.048	0.885 ± 0.16	0.866 ± 0.12	0.931 ± 0.13	0.869 ± 0.086	0.906 ± 0.082
PARP4 (UniProt Q9UKK3)	1.17 ± 0.18	1.11 ± 0.16	1.12 ± 0.2	1.18 ± 0.093	1.23 ± 0.16	1.17 ± 0.091	1.09 ± 0.14	1.44 ± 0.15
CDV3 (UniProt Q9UKY7)	0.957 ± 0.072	1.05 ± 0.071	0.915 ± 0.072	0.955 ± 0.11	0.889 ± 0.093	1 ± 0.092	1.09 ± 0.083	1.11 ± 0.068
FAM118A (UniProt Q9NWS6)	0.933 ± 0.058	0.948 ± 0.075	0.934 ± 0.071	0.934 ± 0.11	0.884 ± 0.067	0.891 ± 0.12	0.901 ± 0.064	0.875 ± 0.1
UniProt Q9NWV4	0.937 ± 0.062	0.939 ± 0.053	0.912 ± 0.063	0.903 ± 0.066	0.899 ± 0.061	0.912 ± 0.061	0.889 ± 0.094	0.902 ± 0.083
CPSF2 (UniProt Q9P2I0)	1.04 ± 0.047	1.09 ± 0.054	1.09 ± 0.083	1.16 ± 0.087	1.19 ± 0.13	1.21 ± 0.13	1.21 ± 0.14	1.19 ± 0.092
WDR70 (UniProt Q9NW82)	1.08 ± 0.076	1.09 ± 0.064	1.02 ± 0.065	0.993 ± 0.068	1.01 ± 0.08	1.01 ± 0.062	1.04 ± 0.098	0.976 ± 0.11
UniProt Q9NXF7	1 ± 0.18	0.98 ± 0.17	1.04 ± 0.13	1.01 ± 0.12	0.968 ± 0.12	0.968 ± 0.12	0.977 ± 0.14	1.04 ± 0.14
UniProt Q9UBP0 and related entries	1.09 ± 0.052	1.07 ± 0.081	1.02 ± 0.043	1.01 ± 0.054	0.974 ± 0.034	0.977 ± 0.058	0.979 ± 0.069	0.975 ± 0.069
UniProt Q9UKX7-2|Q9UKX7	0.972 ± 0.015	1.04 ± 0.033	1.08 ± 0.042	1.09 ± 0.033	1.09 ± 0.02	1.14 ± 0.034	1.14 ± 0.068	1.16 ± 0.083

Nothing new here: an excerpt of the list.
Target	NP40-soluble protein abundance (concentration: 0.1mM)	NP40-soluble protein abundance (concentration: 0.5mM)	NP40-soluble protein abundance (concentration: 1mM)	NP40-soluble protein abundance (concentration: 2mM)	NP40-soluble protein abundance (concentration: 4mM)	NP40-soluble protein abundance (concentration: 6mM)	NP40-soluble protein abundance (concentration: 8mM)	NP40-soluble protein abundance (concentration: 10mM)
COPS7A (UniProt Q9UBW8)	0.953 ± 0.1	0.912 ± 0.09	1.05 ± 0.15	1.09 ± 0.12	1.09 ± 0.18	1.05 ± 0.12	0.985 ± 0.12	1.08 ± 0.18
ARMCX3 (UniProt Q9UH62)	0.99 ± 0.12	1.02 ± 0.12	0.987 ± 0.12	1.01 ± 0.13	1 ± 0.071	1.05 ± 0.068	0.914 ± 0.12	1.02 ± 0.11
